# Data from publication PMC2655719.
# The chains behind the UniProt entries cited, without tags or fusion partners. Where a name states a change or a piece, a line headed by the entry shows the natural chain unless it says otherwise.
# UniProt P61224: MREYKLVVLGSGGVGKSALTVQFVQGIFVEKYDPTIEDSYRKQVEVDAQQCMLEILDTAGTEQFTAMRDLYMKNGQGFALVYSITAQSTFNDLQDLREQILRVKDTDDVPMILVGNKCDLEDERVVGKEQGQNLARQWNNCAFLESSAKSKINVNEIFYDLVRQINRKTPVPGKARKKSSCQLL
# These are yes or no findings as the source states them, for the method shown. Some results given as binding are weak or reduced against the parent protein; the word gives no strength. Sequences can lack the tags named with a protein.
# Biological target: Gal4p DNA binding domain fusion of Rap1B (glycine-12-to-valine) (UniProt P61224)
# Assay: two-hybrid; S. cerevisiae PJ69-4A; GTPases fused to the Gal4p DNA binding domain (pGBT9), RBDs fused to the Gal4p activation domain (pACTII); growth on SDA-Leu-Trp-His with 3AT
binder,measurement,value
"Gal4p activation domain fusion of RGS14 (amino acids 263-544) (domain or fragment, UniProt O08773 263-544) NSSASLDLGFLAFVSSKSESHRKSLGSGEGESESRPGKYCCVYLPDGTASLALARPGLTIRDMLAGICEKRGLSLPDIKVYLVGKEQKALVLDQDCTVLADQEVRLENRITFQLELVGLERVVRISAKPTKRLQEALQPILAKHGLSLDQVVLHRPGEKQLVDLENLVSSVASQTLVLDTLPDAKTREASSIPPCRSQGCLPRTQTKDSHLPPLSSSLSVEDASGSTGKRQTCDIEGLVELLNRVQSSGAHDQRGLLRKEDLVLPEFLQLPSQRPGSQEAPP",binding,binds
